Source: PubChem BioAssay AID1259307 (Sanger Institute, 2017)
Purpose: 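Identify kinases needed for SW620 growth or enhancing BYL719, cetuximab or trametinib effects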 (primary screen). Cell system: SW620 colorectal cancer cells. Reagents: siRNA pool against human genes. Conditions: anchor drugs BYL719 at 1 µM, cetuximab at 5 µg/ml or trametinib at 10 nM, each beside a DMSO vehicle arm. Measured: 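Cell viability in each well relative to non-targeting controls, averaged over replicates and turned into a robust z-score; synergy with BYL719 (1 µM), cetuximab (5 µg/ml), trametinib (10 nM) versus DMSO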. Direction: viability robust z-score, no drug: higher = more viable cells. Active means: 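a knock-down counts as lethal alone if its drug-free robust viability z-score is lower than -3, regardless of synergy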. Meaning of the calls: active = essential (lethal alone); inactive = no change alone.
Here is an unselected part of 794 deposited reagents. Of all reagents, 15 (1.9%) are marked active. 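Calls reflect lethality without any drug; synergy scores did not enter the calls.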 Not all columns of the deposit are shown. No sequences are given here. Not stated in the record: the amount of reagent, the time to read-out.

With TRIB2, what was measured?
viability robust z-score, no drug: -0.513; Outcome: inactive

How did the screen score TTBK2?
viability robust z-score, no drug: -0.145; Outcome: inactive

For PRKCI, how do the results read?
viability robust z-score, no drug: -0.0734; Outcome: inactive

With VRK1, how do the results read?
viability robust z-score, no drug: -0.388; Outcome: inactive

With PSKH2, what does the deposit list?
viability robust z-score, no drug: 0.736; Outcome: inactive

Which result is listed for CTNNB1?
viability robust z-score, no drug: -1.67; Outcome: inactive

For MAPK14, how do the results read?
viability robust z-score, no drug: -0.0793; Outcome: inactive

With FGFR2, what does the deposit list?
viability robust z-score, no drug: 0.297; Outcome: inactive

How did the screen score RPS6KA1?
viability robust z-score, no drug: -0.0277; Outcome: inactive

What did the screen give for SPHK1?
viability robust z-score, no drug: 0.367; Outcome: inactive

How did the screen score WNK2?
viability robust z-score, no drug: 0.148; Outcome: inactive

For PANK2, how do the results read?
viability robust z-score, no drug: 0.188; Outcome: inactive
